# Measured values taken from patent US8344173 (dated 2013).
# Experiment: peptide synthesis
# Settings: conjugation step
row,Substance,conjugation yield [%]
1,tris(methoxypolyethylene glycol350)tris[carbobenzyloxylysyl-aminomalonylbis(diethylmalonate)]cyclotriphosphazene,71
2,tris(methoxypolyethylene glycol350)tris[carbobenzyloxylysyl-aspartylbis(diethylaspartate)]cyclotriphosphazene,76
3,tris(methoxypolyethylene glycol350)tris[carbobenzyloxylysyl-glutamylbis(diethylglutamate)]cyclotriphosphazene,68
4,tris(methoxypolyethylene glycol550)tris[carbobenzyloxylysyl-aminomalonylbis(diethylmalonate)]cyclotriphosphazene,68
5,tris(methoxypolyethylene glycol550)tris[carbobenzyloxylysyl-aspartylbis(diethylaspartate)]cyclotriphosphazene,62
6,tris(methoxypolyethylene glycol550)tris[carbobenzyloxylysyl-glutamylbis(diethylglutamate)]cyclotriphosphazene,58
7,tris(methoxypolyethylene glycol750)tris[carbobenzyloxylysyl-aminomalonylbis(diethylmalonate)]cyclotriphosphazene,62
8,tris(methoxypolyethylene glycol750)tris[carbobenzyloxylysyl-aspartylbis(diethylaspartate)]cyclotriphosphazene,51
9,tris(methoxypolyethylene glycol750)tris[carbobenzyloxylysyl-glutamylbis(diethylglutamate)]cyclotriphosphazene,60
